Laboratory results: PMC3696057
These are yes or no findings as the source states them, for the method shown. Binding seen in cells or lysates may run through a third protein. Some binding calls cover weakened binding; strength is not graded here.

Chains of the proteins cited; added tags and fusions are not shown.
UniProt Q8BWG9: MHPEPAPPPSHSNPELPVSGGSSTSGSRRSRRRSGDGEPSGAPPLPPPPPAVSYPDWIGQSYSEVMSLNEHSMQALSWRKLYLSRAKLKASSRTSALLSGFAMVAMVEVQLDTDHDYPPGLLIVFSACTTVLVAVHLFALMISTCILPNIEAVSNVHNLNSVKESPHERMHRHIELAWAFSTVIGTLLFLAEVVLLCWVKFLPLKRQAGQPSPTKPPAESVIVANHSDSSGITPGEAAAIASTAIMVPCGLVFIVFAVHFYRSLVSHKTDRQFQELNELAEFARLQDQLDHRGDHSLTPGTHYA

Target: T1, SPCA2 (secretory pathway Ca2+-ATPase isoform 2) (mouse (endogenous in lactating mammary tissue)) (UniProt A7L9Z8)
T1 sequence: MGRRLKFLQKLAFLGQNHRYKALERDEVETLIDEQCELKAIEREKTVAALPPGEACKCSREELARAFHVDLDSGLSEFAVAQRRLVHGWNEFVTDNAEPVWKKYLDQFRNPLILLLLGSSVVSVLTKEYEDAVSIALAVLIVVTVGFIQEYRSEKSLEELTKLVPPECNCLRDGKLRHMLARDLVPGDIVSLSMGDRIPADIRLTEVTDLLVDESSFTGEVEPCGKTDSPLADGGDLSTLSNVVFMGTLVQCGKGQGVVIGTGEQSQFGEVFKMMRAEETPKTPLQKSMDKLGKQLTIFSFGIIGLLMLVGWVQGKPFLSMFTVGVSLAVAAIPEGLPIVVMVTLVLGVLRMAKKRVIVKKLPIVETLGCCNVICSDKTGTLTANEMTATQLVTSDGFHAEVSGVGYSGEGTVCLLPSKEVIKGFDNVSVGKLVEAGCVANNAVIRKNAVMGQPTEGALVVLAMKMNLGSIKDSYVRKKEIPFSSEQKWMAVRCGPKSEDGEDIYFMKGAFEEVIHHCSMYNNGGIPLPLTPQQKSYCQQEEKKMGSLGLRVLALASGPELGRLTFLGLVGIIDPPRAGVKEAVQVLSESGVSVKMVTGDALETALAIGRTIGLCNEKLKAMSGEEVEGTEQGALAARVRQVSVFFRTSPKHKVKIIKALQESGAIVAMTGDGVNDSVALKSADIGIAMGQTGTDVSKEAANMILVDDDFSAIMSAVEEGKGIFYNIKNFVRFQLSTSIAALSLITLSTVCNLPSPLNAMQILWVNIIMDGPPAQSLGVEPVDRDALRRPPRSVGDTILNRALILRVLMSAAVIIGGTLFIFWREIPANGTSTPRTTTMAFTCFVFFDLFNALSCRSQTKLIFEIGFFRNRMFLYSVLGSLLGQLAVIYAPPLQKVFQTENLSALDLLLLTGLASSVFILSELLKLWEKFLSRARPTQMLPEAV
Assay: co-IP; SPCA2 immunoprecipitated from lactating (Day 5) mouse mammary tissue with polyclonal rabbit anti-hSPCA2 peptide antibody, rabbit IgG as control; Orai1 detected by immunoblotting

Orai1 (from UniProt Q8BWG9 1-304) was tested, and the binding was “binds”.
